# Assay results published in PubChem BioAssay (EPA / NIEHS).
# The chains behind the UniProt entries cited, without tags or fusion partners. Where a name states a change or a piece, a line headed by the entry shows the natural chain unless it says otherwise.
# UniProt P10275: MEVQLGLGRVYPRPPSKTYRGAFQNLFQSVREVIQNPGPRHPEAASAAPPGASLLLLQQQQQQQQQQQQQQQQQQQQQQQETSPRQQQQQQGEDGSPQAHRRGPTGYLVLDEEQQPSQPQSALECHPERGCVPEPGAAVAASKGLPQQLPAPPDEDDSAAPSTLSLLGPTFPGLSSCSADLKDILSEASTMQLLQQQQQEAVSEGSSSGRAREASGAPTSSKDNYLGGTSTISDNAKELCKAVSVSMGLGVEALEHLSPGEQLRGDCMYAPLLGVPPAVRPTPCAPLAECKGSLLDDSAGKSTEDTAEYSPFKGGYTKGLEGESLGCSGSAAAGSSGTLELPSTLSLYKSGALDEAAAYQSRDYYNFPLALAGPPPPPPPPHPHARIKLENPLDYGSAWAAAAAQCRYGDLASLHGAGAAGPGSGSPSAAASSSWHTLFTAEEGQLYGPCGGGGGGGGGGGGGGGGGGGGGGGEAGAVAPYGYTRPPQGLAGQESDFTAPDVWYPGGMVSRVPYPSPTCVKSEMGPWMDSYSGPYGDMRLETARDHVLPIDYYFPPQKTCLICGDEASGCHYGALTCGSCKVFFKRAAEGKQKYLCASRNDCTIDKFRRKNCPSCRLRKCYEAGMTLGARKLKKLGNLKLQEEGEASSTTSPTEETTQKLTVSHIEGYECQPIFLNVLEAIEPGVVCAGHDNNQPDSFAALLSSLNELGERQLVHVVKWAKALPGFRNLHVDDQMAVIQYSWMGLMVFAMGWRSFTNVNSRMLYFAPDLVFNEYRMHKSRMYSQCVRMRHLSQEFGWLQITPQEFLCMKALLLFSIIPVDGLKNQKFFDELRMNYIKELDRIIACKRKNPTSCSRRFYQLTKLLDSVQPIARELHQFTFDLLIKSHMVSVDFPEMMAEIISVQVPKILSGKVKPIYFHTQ
# UniProt P03372, whole entry, looked up: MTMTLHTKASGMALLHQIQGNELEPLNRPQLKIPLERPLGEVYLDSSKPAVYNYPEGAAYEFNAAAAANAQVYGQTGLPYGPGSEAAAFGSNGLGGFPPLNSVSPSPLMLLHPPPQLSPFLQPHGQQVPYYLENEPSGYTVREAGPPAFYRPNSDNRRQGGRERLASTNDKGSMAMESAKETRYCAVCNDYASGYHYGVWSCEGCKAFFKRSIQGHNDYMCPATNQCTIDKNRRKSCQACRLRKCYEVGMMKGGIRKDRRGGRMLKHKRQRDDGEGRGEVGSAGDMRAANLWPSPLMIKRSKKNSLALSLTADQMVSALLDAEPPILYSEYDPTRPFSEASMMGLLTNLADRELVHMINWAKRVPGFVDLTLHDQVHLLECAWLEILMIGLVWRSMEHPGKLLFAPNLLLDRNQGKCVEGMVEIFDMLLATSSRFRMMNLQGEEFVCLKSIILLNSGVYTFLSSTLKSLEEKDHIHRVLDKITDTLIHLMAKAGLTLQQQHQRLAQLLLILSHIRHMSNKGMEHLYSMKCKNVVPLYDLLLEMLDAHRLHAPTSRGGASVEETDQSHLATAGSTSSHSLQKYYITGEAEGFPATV
# For part of these data: Listed are the inconclusive results; actives and inactives stand elsewhere. Potencies of inconclusive entries are doubtful fits and often do not repeat. For part of these data: This list was built around the results that the source calls inconclusive (neither active nor inactive); the mix of calls is not that of the screen. Activity calls are given as the source filed them. The calls were made as follows: active = hit-call score of the fitted dose curve at least 0.9, where 1 is the maximum; inconclusive = response in the unintended direction; inactive = score below 0.9.
# Columns and labels:
# [1] = biological target: Nucleoli Translocation, AR (gene 367) (UniProt P10275); assay: UPITT_HCI_U2OS_AR_TIF2_Nucleoli_Agonist: University of Pittsburgh U2OS Androgen Receptor-Transcriptional Intermediary Factor 2 (AR-TIF2) Agonism High Content Imaging Assay for Nucleoli Translocation (AID 2283998)
# In short: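 Nucleolar translocation of AR-RFP, with TIF2-GFP coexpressed in human osteosarcoma U2OS, imaged by high-content fluorescence. Compounds tested singly at 20 uM final, confirmed in triplicate, then titrated 0.195–50 uM final; gain-of-signal relative to DMSO.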
# [2] = biological target: Estrogen receptor (Homo sapiens) (UniProt P03372); assay: CCTE_Deisenroth_AIME_96WELL_LUC_Active: CCTE's 96-well Estrogen Receptor Transactivation Assay with AIME metabolic competence (ERTA luciferase; metabolism positive), Deisenroth Lab (AID 2284023)
# In short: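 Metabolism-positive mode: induced rat hepatic S9 in alginate microspheres conditions test solutions (0.002 - 200 uM, 10 points) for 2 hours. VM7Luc4E2 ER luciferase reporter cells then exposed 24 h; positive-direction fit against 17beta-estradiol, n=4 typical.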
# [3] = biological target: Estrogen receptor (Homo sapiens) (UniProt P03372); assay: CCTE_Deisenroth_AIME_96WELL_LUC_Inactive: CCTE's 96-well Estrogen Receptor Transactivation Assay without AIME metabolic competence (ERTA luciferase; metabolism negative), Deisenroth Lab (AID 2284025)
# Experimental: CCTE_Deisenroth_AIME_96WELL (AIME metabolism assay) is a cell-based, single-readout assay that uses VM7Luc4E2, a human mammary gland/breast cell line, with measurements taken at 24 hour after chemical dosing in a 96-well plate.CCTE_Deisenroth_AIME_96WELL_LUC_Inactive is one of four assay components measured or calculated from the CCTE_Deisenroth_AIME_96WELL assay. It is designed to make measurements of luciferase induction, a form of inducible reporter, as detected with bioluminescence signals by luciferase-coupled ATP quantitation technology.CCTE_Deisenroth_AIME_96WELL_LUC_Inactive is a component of the CCTE_Deisenroth_AIME_96WELL assay that measures the effect of retroftting the VM7Luc ERTA assay with the Alginate Immobolization of Metabolic Enzymes (AIME) metabolism method. AIME is optimized to impart phase I hepatic metabolism using phenobarbital/beta-naphthoflavone induced hepatic S9 from male Sprague Dawley rats. Parent chemicals are incubated for 2 hours in the AIME assay prior to transfer to the VM7Luc ERTA assay plate. […] This endpoint evaluates reporter induction in metabolism negative mode. […] This assay endpoint, CCTE_Deisenroth_AIME_96WELL_LUC_Inactive, was analyzed in the positive analysis fitting direction relative to 17beta-estradiol as the positive control in the ERTA assay. […]
compound,measurement,setting,value
CCCCCCCCC=CCCCCCCCC1=NCCN1CCO,AC50,[1],active: 13.3 µM
CCCCC1CCC(O)CC1 (stereo unspecified),AC50,[1],inconclusive: 6.71 µM
COc1cc(CCC(=O)CC(=O)CCc2ccc(O)c(OC)c2)ccc1O,AC50,[2],inconclusive: 163 µM
COc1cccc2c1C(=O)c1c(O)c3c(c(O)c1C2=O)C[C@@](O)(C(=O)CO)C[C@@H]3O[C@H]1C[C@H](N)[C@H](O)[C@H](C)O1,AC50,[2],inconclusive: 6.3 µM
same,AC50,[3],inconclusive: 10.5 µM
CC(C)(C)c1ccc(O)c(C(C)(C)C)c1,AC50,[3],inconclusive: 114 µM
